The other results are listed elsewhere or left out.
Legend:
Experiment in all cases: glycan array binding signal (z-score within array); higher = stronger binding
Details in all cases: glycan notation: IUPAC condensed, linker removed
[1] = target: Fuc(a1-2)[Gal(a1-4)]Gal(b1-4)GlcNAc
Summary of the method: (§1)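 Glycan array data came from 3228 arrays in the Consortium for Functional Glycomics database, and only arrays with an available protein sequence were kept. Glycan names were put into IUPAC-condensed notation, and columns mapping to the same glycan were averaged. The binding signal is a within-array Z-score, averaged across arrays of one protein sequence run at different concentrations or buffers and across linkers. A negative Z-score can be read as non-binding.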

[2] = target: Fuc(a1-2)[GalNAc(a1-3)]Gal
Summary of the method: as §1

[3] = target: Fuc(a1-2)[GalNAc(a1-3)]Gal(b1-3)GalNAc(a1-3)[Fuc(a1-2)]Gal(b1-4)GlcNAc
Summary of the method: as §1

[4] = target: Fuc(a1-2)[GalNAc(a1-3)]Gal(b1-3)GalNAc(b1-3)Gal(a1-4)Gal(b1-4)Glc
Summary of the method: as §1

[5] = target: Fuc(a1-2)[GalNAc(a1-3)]Gal(b1-3)GlcNAc
Summary of the method: as §1

[6] = target: Fuc(a1-2)[GalNAc(a1-3)]Gal(b1-3)GlcNAc(b1-2)Man(a1-3)[Fuc(a1-2)[GalNAc(a1-3)]Gal(b1-3)GlcNAc(b1-2)Man(a1-6)]Man(b1-4)GlcNAc(b1-4)GlcNAc
Summary of the method: as §1

[7] = target: Fuc(a1-2)[GalNAc(a1-3)]Gal(b1-3)GlcNAc(b1-2)Man(a1-3)[Fuc(a1-2)[GalNAc(a1-3)]Gal(b1-3)GlcNAc(b1-2)Man(a1-6)]Man(b1-4)GlcNAc(b1-4)[Fuc(a1-6)]GlcNAc
Summary of the method: as §1

[8] = target: Fuc(a1-2)[GalNAc(a1-3)]Gal(b1-3)GlcNAc(b1-3)GalNAc
Summary of the method: as §1

[9] = target: Fuc(a1-2)[GalNAc(a1-3)]Gal(b1-3)GlcNAc(b1-6)GalNAc
Summary of the method: as §1

[10] = target: Fuc(a1-2)[GalNAc(a1-3)]Gal(b1-4)Glc
Summary of the method: as §1

[11] = target: Fuc(a1-2)[GalNAc(a1-3)]Gal(b1-4)GlcNAc
Summary of the method: as §1

[12] = target: Fuc(a1-2)[GalNAc(a1-3)]Gal(b1-4)GlcNAc(b1-2)Man
Summary of the method: as §1

[13] = target: Fuc(a1-2)[GalNAc(a1-3)]Gal(b1-4)GlcNAc(b1-2)Man(a1-3)[Fuc(a1-2)[GalNAc(a1-3)]Gal(b1-4)GlcNAc(b1-2)Man(a1-6)]Man(b1-4)GlcNAc(b1-4)GlcNAc
Summary of the method: as §1

[14] = target: Fuc(a1-2)[GalNAc(a1-3)]Gal(b1-4)GlcNAc(b1-2)Man(a1-3)[Fuc(a1-2)[GalNAc(a1-3)]Gal(b1-4)GlcNAc(b1-2)Man(a1-6)]Man(b1-4)GlcNAc(b1-4)[Fuc(a1-6)]GlcNAc
Summary of the method: as §1

[15] = target: Fuc(a1-2)[GalNAc(a1-3)]Gal(b1-4)GlcNAc(b1-3)Gal(b1-4)GlcNAc
Summary of the method: as §1

[16] = target: Fuc(a1-2)[GalNAc(a1-3)]Gal(b1-4)GlcNAc(b1-3)Gal(b1-4)GlcNAc(b1-3)Gal(b1-4)GlcNAc
Summary of the method: as §1

[17] = target: Fuc(a1-2)[GalNAc(a1-3)]Gal(b1-4)GlcNAc(b1-3)GalNAc
Summary of the method: as §1

[18] = target: Fuc(a1-2)[GalNAc(a1-3)]Gal(b1-4)GlcNAc(b1-3)[Fuc(a1-2)[GalNAc(a1-3)]Gal(b1-4)GlcNAc(b1-6)]GalNAc
Summary of the method: as §1

[19] = target: Fuc(a1-2)[GalNAc(a1-3)]Gal(b1-4)GlcNAc(b1-6)GalNAc
Summary of the method: as §1

[20] = target: Fuc(a1-2)[GalNAc(a1-3)]Gal(b1-4)[Fuc(a1-3)]GlcNAc
Summary of the method: as §1

[21] = target: Fuc(a1-2)[GalNAc(a1-3)]Gal(b1-4)[Fuc(a1-3)]GlcNAc(b1-3)GalNAc
Summary of the method: as §1

[22] = target: Fuc(a1-2)[GalNAc(a1-4)]Gal(b1-4)GlcNAc
Summary of the method: as §1

[23] = target: Fuc(a1-2)[GalNAc(b1-3)]Gal
Summary of the method: as §1

Fuc(a1-3)GlcNAc = target: Fuc(a1-3)GlcNAc
Summary of the method: as §1

[24] = target: Fuc(a1-3)[Gal(b1-4)]Glc6S
Summary of the method: as §1

[25] = target: Fuc(a1-3)[Gal(b1-4)]GlcNAc
Summary of the method: as §1

[26] = target: Fuc(a1-3)[Gal(b1-4)]GlcNAc(b1-2)Man
Summary of the method: as §1

[27] = target: Fuc(a1-3)[Gal(b1-4)]GlcNAc(b1-2)Man(a1-3)[Fuc(a1-3)[Gal(b1-4)]GlcNAc(b1-2)Man(a1-6)]Man(b1-4)GlcNAc(b1-4)GlcNAc
Summary of the method: as §1

[28] = target: Fuc(a1-3)[Gal(b1-4)]GlcNAc(b1-2)Man(a1-3)[Fuc(a1-3)[Gal(b1-4)]GlcNAc(b1-2)Man(a1-6)]Man(b1-4)GlcNAc(b1-4)[Fuc(a1-6)]GlcNAc
Summary of the method: as §1

[29] = target: Fuc(a1-3)[Gal(b1-4)]GlcNAc(b1-3)Gal(b1-3)[Fuc(a1-4)]GlcNAc
Summary of the method: as §1

[30] = target: Fuc(a1-3)[Gal(b1-4)]GlcNAc(b1-3)Gal(b1-4)[Fuc(a1-3)]GlcNAc
Summary of the method: as §1

[31] = target: Fuc(a1-3)[Gal(b1-4)]GlcNAc(b1-3)Gal(b1-4)[Fuc(a1-3)]GlcNAc(b1-3)Gal(b1-4)[Fuc(a1-3)]GlcNAc
Summary of the method: as §1

[32] = target: Fuc(a1-3)[Gal(b1-4)]GlcNAc(b1-3)GalNAc
Summary of the method: as §1

[33] = target: Fuc(a1-3)[Gal(b1-4)]GlcNAc(b1-6)GalNAc
Summary of the method: as §1

[34] = target: Fuc(a1-3)[Gal(b1-4)]GlcNAc(b1-6)[Gal(b1-3)GlcNAc(b1-3)]Gal(b1-4)Glc
Summary of the method: as §1

[35] = target: Fuc(a1-3)[Gal(b1-4)]GlcNAc6S
Summary of the method: as §1

[36] = target: Fuc(a1-3)[Gal3S(b1-4)]Glc
Summary of the method: as §1

[37] = target: Fuc(a1-3)[Gal3S(b1-4)]GlcNAc
Summary of the method: as §1

B1: truncCC1G-10077 (Coprinopsis cinerea) (protein)
chain: MHHHHHHHHPLPSPGPGWVLIQNGGTGKFLCSTPSGDIGTADGPETVYDYSVQWRFIQREYTGVYHVVNRATGAYLRQIGTSMPSIGLAEENDDELKDWWMLETYDNSEIGLASIISRWTGNVLDHYGGVSVQALDNNTENSYRSWAIIPARDWLTSFSLVNGQGGLCLAAQYAREETRLSTTANVNDFHAQWVFRKPSGSSGYTIQNKYNNHYVGGTSARWELVVCCNKYFGIRNTSTQKYLAIEDGQVTFQDQDMTDRKQCWELCSGRATDTSGNDYDLIYMDDDLLEVMIPWVGDKQGDLKHYIEKRATKKPPKDKGGWQLPAAGLIKKPKFNDIRQLLQELIEQWEWDVVNEEREQIQTLVSIDEAEARRLLGRRPHPDIVAAYQRSRSSTLFRIDRQGYFNIAGDRYVNIQGQYGDDSYFHIALPVGVRFGREQIRRFLRDSLDRSTSVTITPTTCKPPSGGPDYNRDPDSDGDNSWIKWTIAVVGTSAIKHSEL
glycan array binding signal (z-score) [1]: -0.746 | glycan array binding signal (z-score) [2]: -1.11 | glycan array binding signal (z-score) [3]: 1.06 | glycan array binding signal (z-score) [4]: -0.475 | glycan array binding signal (z-score) [5]: -0.551 | glycan array binding signal (z-score) [6]: -0.568 | glycan array binding signal (z-score) [7]: -0.214 | glycan array binding signal (z-score) [8]: 3.65 | glycan array binding signal (z-score) [9]: -1.08 | glycan array binding signal (z-score) [10]: -0.829 | glycan array binding signal (z-score) [11]: -1.17 | glycan array binding signal (z-score) [12]: -0.17 | glycan array binding signal (z-score) [13]: 0.045 | glycan array binding signal (z-score) [14]: 0.625 | glycan array binding signal (z-score) [15]: -1.1 | glycan array binding signal (z-score) [16]: 0.822 | glycan array binding signal (z-score) [17]: 1.18 | glycan array binding signal (z-score) [18]: 0.208 | glycan array binding signal (z-score) [19]: -0.612 | glycan array binding signal (z-score) [20]: 0.264 | glycan array binding signal (z-score) [21]: 1.38 | glycan array binding signal (z-score) [22]: -0.664 | glycan array binding signal (z-score) [23]: -0.891 | glycan array binding signal (z-score) (Fuc(a1-3)GlcNAc): -0.634 | glycan array binding signal (z-score) [24]: 0.611 | glycan array binding signal (z-score) [25]: -0.345 | glycan array binding signal (z-score) [26]: 0.503 | glycan array binding signal (z-score) [27]: 0.357 | glycan array binding signal (z-score) [28]: 0.902 | glycan array binding signal (z-score) [29]: 0.276 | glycan array binding signal (z-score) [30]: 1.37 | glycan array binding signal (z-score) [31]: -0.523 | glycan array binding signal (z-score) [32]: 0.24 | glycan array binding signal (z-score) [33]: 3.46 | glycan array binding signal (z-score) [34]: -0.77 | glycan array binding signal (z-score) [35]: -0.152 | glycan array binding signal (z-score) [36]: 0.613 | glycan array binding signal (z-score) [37]: 0.286

Reference: the supplement of paper PMC8728848
